Measurements published in PubChem BioAssay AID2551 (National Center for Advancing Translational Sciences (NCATS), 2010).
“And” between values parts separate entries of the source, which are not always exact repeats. Identical values can stand only once. Hit rate of the full screen: of about 310,000 compounds, about 17,000 (5.5%) were called active. The shares of active, inactive and inconclusive entries below differ from those in the screen. Calls follow the shape of the dose curve; as a rule, active = well fitted inhibition curve with a large enough effect; inconclusive = small, poorly fitted or top-dose-only effect, or effect the other way; inactive = no such curve, though single readings can be large or run the other way. Where the call is inconclusive, the potency comes from a doubtful curve fit.

The chains behind the UniProt entries cited, without tags or fusion partners. Where a name states a change or a piece, a line headed by the entry shows the natural chain unless it says otherwise.
UniProt P51450: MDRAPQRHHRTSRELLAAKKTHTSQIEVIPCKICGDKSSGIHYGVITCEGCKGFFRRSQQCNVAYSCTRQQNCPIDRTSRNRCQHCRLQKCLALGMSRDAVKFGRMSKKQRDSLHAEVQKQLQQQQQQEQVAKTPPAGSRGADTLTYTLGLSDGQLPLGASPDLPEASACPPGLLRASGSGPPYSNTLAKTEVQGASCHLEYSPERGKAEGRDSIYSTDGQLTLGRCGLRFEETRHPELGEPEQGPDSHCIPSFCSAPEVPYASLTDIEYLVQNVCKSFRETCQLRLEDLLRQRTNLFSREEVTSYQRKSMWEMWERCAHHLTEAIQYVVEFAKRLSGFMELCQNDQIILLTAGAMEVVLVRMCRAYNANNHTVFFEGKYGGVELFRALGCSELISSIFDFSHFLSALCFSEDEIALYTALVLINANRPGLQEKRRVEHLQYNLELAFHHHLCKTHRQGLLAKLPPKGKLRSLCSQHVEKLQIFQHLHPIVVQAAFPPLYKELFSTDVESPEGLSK

What follows are compounds tested against Nuclear receptor ROR-gamma (Mus musculus) (UniProt P51450) (assay: qHTS for inhibitors of ROR gamma transcriptional activity). Settings: Drosophila S2 Gal4-RORgamma UAS-luciferase reporter, 20 h; series mostly up to 53.6 µM.
Outline: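 Luciferase reporter read in Schneider cells carrying Gal4-RORγ (mouse) and UAS-Photinus luciferase; cells given compound 1 h before 700 uM copper sulfate induction, then incubated 20 h at ambient temperature.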
Also: nearly all actives have a fitted effect of over 60% in size.
Potency is read from the fitted curve at half-maximal effect.

Structure (SMILES) | Potency
Cc1nc(NC(=O)c2ccco2)sc1C(=O)Nc1ccc(Br)cc1 | inconclusive: 2 µM [activator, full curve]
Cc1cccc(NNC(N)=S)c1 | inconclusive: 0.398 µM [inhibitor, partial curve, poor fit]
O=C(Nc1ccc2ccccc2c1)c1ccc(Cl)cc1Cl | active: 7.94 µM
CC(C)(C)c1ccc2c(c1)N(CC(=O)N1CCCC1)C(=O)CO2 | inconclusive: 1.26 µM [activator, full curve, poor fit]
CCOc1ccc(NC(=O)CCC(=O)NNC(=O)c2ccccc2Cl)cc1 | inactive
CC(=O)Nc1ccc(-c2csc(Nc3ccccn3)n2)cc1 | inactive
CC(=O)N(CCC(Cc1ccccc1)c1ccc2c(c1)OCO2)Cc1ccccc1F (stereo not drawn) | inconclusive: 22.4 µM [activator, single point]
CC(C)c1nc(-c2ccc([N+](=O)[O-])cc2)cs1 | inconclusive: 25.1 µM [activator, single point]
NC(=O)CC(NC(=O)Cc1ccc(Br)cc1)c1ccc(N2CCC(N3CCCCC3)CC2)c([N+](=O)[O-])c1 (stereo not drawn) | inactive
COc1cc(C(=O)Nc2nc(C)c(Cc3ccc4c(c3)OCO4)s2)cc(OC)c1OC | active: 7.94 µM
Cc1ccccc1OCc1n(CC(=O)OC2CC(C)CCC2C(C)C)c2ccccc2[n+]1C (stereo not drawn) | inactive and inconclusive: 35.5 µM [inhibitor, single point]
O=C(CN1C(=O)S/C(=C\C=C\c2ccccc2)C1=O)Nc1ccc(O)cc1 | inconclusive: 15.8 µM [inhibitor, single point]
O=C(CSCc1ccc([N+](=O)[O-])cc1)NC1CC2CCC1C2 (stereo not drawn) | inconclusive: 20 µM [activator, partial curve]
O=C(CCCN1C(=O)/C(=C/c2ccccc2)SC1=S)Nc1ccc(C(=O)O)c(O)c1 | inconclusive: 11.2 µM [inhibitor, single point]
CCOC(=O)c1c(CN2CCCCC2)oc2ccc(OC)cc12 | inactive
COc1cc(C(=O)N2CCN(Cc3ccccc3C(F)(F)F)CC2)cc(OC)c1OC | inconclusive: 35.5 µM [activator, single point]
COc1ccc(SCC(c2ccccc2)N2CCN(CC(C)C)CCC2=O)cc1 (stereo not drawn) | inactive
COCCn1c(-c2ccc(OC)cc2)cnc1SCC(=O)Nc1cccc2ccccc12 | active: 5.01 µM
CCCCC(O)(c1ccc(OC)cc1)C(CN1CCOCC1)c1ccccc1 (stereo not drawn) | inactive
O=c1cc(-c2ccccc2)nc2nc(-c3ccco3)[nH]n12 | inconclusive: 31.6 µM [inhibitor, single point]
COc1ccc(NC(=O)c2cccc(S(=O)(=O)Nc3ccc(Br)cc3)c2)cn1 | inconclusive: 2.51 µM [activator, partial curve]
CCOC(=O)c1ccc(S(=O)(=O)N2CCN(CC(=O)NC(=O)NC3CCCCC3)CC2)cc1 | inconclusive: 22.4 µM [activator, single point]
COC(=O)c1cn(NC(=O)c2cnccn2)c(=O)c2ccccc12 | active: 12.6 µM
COc1ccc(NC(=O)CSc2nnc(Cc3cccn3C)n2CCc2ccccc2)cc1OC | inconclusive: 12.6 µM [activator, partial curve]
O=C(Nc1ccon1)c1ccc(S(=O)(=O)N2CCOCC2)cc1 | inactive

Structure (SMILES) | Potency
O=C(CSc1cccc2cccnc12)N/N=C/c1cccnc1 | active: 7.08 µM
Cc1cc(C)c(OCC(=O)Nc2nc(-c3ccccn3)cs2)c(C)c1 | active: 2.82 µM
CCn1c(CSc2nnc3ccccn23)nc2cc(C(=O)O)ccc21 | inconclusive: 17.8 µM [inhibitor, single point]
C=CCN1C(=O)S/C(=C\c2ccc(N3CCOCC3)cc2C)C1=O | inactive
O=C(Cc1csc(Nc2nc(=S)[nH]c3ccccc23)n1)N1CCN(c2cccc(Cl)c2)CC1 | active: 1 µM
CCc1c(C)nc2nc(SCc3ccccc3)[nH]n2c1=O | inconclusive: 14.1 µM [activator, single point]
CCc1nc(C)cc2c1sc1ccccc12 | inconclusive: 2.24 µM [inhibitor, full curve]
Cc1cccc(CNc2ncncc2-c2ccccc2C)c1 | inactive
CCCCC(=O)NC(c1ccco1)c1c(O)ccc2ccccc12 (stereo not drawn) | inconclusive: 14.1 µM [activator, partial curve]
COc1ccc2[nH]c3c(=O)n(CCCCC(=O)NCCN4CCCC4)c(=S)[nH]c3c2c1 | inconclusive: 3.16 µM [inhibitor, partial curve, poor fit]
COc1ccccc1OCCNc1cc(N2CCCCC2)ccc1[N+](=O)[O-] | inconclusive: 28.2 µM [activator, single point]
CC(C)(C)Nc1c([N+](=O)[O-])c(=O)sc2ccccc12 | inconclusive: 0.282 µM [inhibitor, full curve, poor fit]
O=C(O)c1ccccc1-c1ccccc1C(=O)Nc1ccc(-c2nc3cc(Cl)ccc3o2)cc1 | inconclusive: 2.24 µM [activator, partial curve]
C=CCn1c(NCCO)nc2sc3c(c2c1=O)CCC3 | inactive
CCOC(=O)c1ccc(N/C(=N\S(=O)(=O)c2ccccc2C)c2ccccc2)cc1 | inconclusive: 7.94 µM [activator, partial curve, poor fit]
CC1(C)OC2C(O1)[C@@H](CO)O[C@H]2n1cnc2c(N)ncnc21 (stereo partly drawn) | inconclusive: 0.708 µM [inhibitor, single point]
COc1ccc(NC(=O)Nc2ccc3c(c2)CCC3)cc1 | inconclusive: 3.98 µM [activator, single point]
CCCCc1ccc(NC(=O)COCC)cc1 | inconclusive: 10 µM [activator, partial curve]
CCCC/C=C/C(NC(=O)c1cccs1)c1ccccc1 (stereo not drawn) | inactive
CN(CC(=O)NCCc1ccc(S(N)(=O)=O)cc1)S(=O)(=O)c1cccc2nsnc12 | inactive
Cc1ccc([N+](=O)[O-])c(C(=O)N/N=C/c2cccs2)c1 | active: 1.41 µM
Cc1ccc(Cl)cc1N(Cc1ccc(C(=O)NCc2cccnc2)cc1)S(=O)(=O)c1ccccc1 | inconclusive: 35.5 µM [inhibitor, single point]
CCOc1ccc(/C=C/C(=O)c2ccccc2)cc1 | inconclusive: 35.5 µM [inhibitor, single point]
COc1cc(-c2n[nH]c(=S)n2-c2cc(C(F)(F)F)ccc2Cl)cc(OC)c1OC | inconclusive: 5.01 µM [inhibitor, single point]
O=C(c1ccccc1)N1CCOC12CCN(c1ncc(C(F)(F)F)cc1Cl)CC2 | inconclusive: 35.5 µM [activator, single point]

Structure (SMILES) | Potency
COC(=O)[C@@H]1C[C@]2(OC(=O)c3ccccc3)C=CC(=O)C[C@@H]2N1C(=O)OCc1ccccc1 | inconclusive: 35.5 µM [inhibitor, single point]
O=C(NCc1ccccc1Cl)c1ccc2c(c1)SC1=NS(=O)(=O)CCN12 | inconclusive: 22.4 µM [inhibitor, partial curve, poor fit]
O=C(CSc1nc2ccccc2s1)NCCCN1CCOCC1 | inactive
COc1ccc(NC(=S)NC(=O)/C=C/c2ccc(F)cc2)cc1 | inconclusive: 7.94 µM [inhibitor, partial curve]
Cn1c(-c2ccc(C=O)s2)nc2ccccc21 | inconclusive: 11.2 µM [inhibitor, single point]
O=C(c1nc2ncccn2n1)N1CCN(c2ccccc2)CC1 | inactive
CCn1c(C(O)c2cc(OC)c(OC)c(OC)c2)nc2ccccc21 (stereo not drawn) | inconclusive: 6.31 µM [activator, single point]
CN(C)S(=O)(=O)c1cccc(NC(=S)N2CCc3ccccc32)c1 | active: 14.1 µM
COCCn1c(C)cc(C(=O)CSc2n[nH]c(N)n2)c1C | inactive
CC1=CSC2=NC(=O)/C(=C\c3cccn3-c3ccc([N+](=O)[O-])cc3)C(=N)N12 | inconclusive: 7.08 µM [inhibitor, full curve, poor fit]
CC1=C(C(=O)OC(C)C)C(c2ccc(C)o2)C(C(=O)OC(C)C)=C(C)N1 | inactive
COc1ccc(NC(=O)C2CCCN(S(=O)(=O)c3ccc4c(c3)CCCN4C(C)=O)C2)cc1 (stereo not drawn) | inactive
CCCNC(=S)Nc1ccc(Nc2ccccc2)cc1 | active: 5.01 µM
Cc1nc(-c2cccc(S(=O)(=O)N3CCC(C)CC3)c2)cs1 | inactive
Cn1cnc([N+](=O)[O-])c1SCC(O)CN1CCCCC1 (stereo not drawn) | inactive
COc1ccc2c(c1OC)C(=O)N1c3ccccc3N=C(c3ccc([N+](=O)[O-])cc3)CC21 (stereo not drawn) | inconclusive: 35.5 µM [activator, single point]
Cc1ccc2[nH]c3ccccc3c(=O)c2c1 | inactive
Cc1ccc(NC(=O)C(=O)NCCCN2CC(C(=O)O)CC2=O)cc1 (stereo not drawn) | inactive
Cc1ccc(Cl)c(NC(=O)CCl)c1Cl | inconclusive: 17.8 µM [inhibitor, single point]
O=C(Nc1ccc(N2CCCC2)c(Cl)c1)c1ccc([N+](=O)[O-])o1 | inconclusive: 14.1 µM [inhibitor, single point]
Cc1ccc(C(=O)CSc2cnc3ccccc3n2)cc1C | inconclusive: 25.1 µM [inhibitor, single point]
Cc1ccc(-c2nnc(CSc3nnc(COc4ccccc4)n3-c3ccccc3)o2)cc1 | inconclusive: 11.2 µM [activator, partial curve]
O=C(O)c1ccc2[nH]c3c(c2c1)CCCC3 | inconclusive: 35.5 µM [activator, partial curve]
